No constants are given. Whether binding was seen depends on the method and setting. In cells and extracts the contact can be indirect. Some binding calls cover weakened binding; strength is not graded here. Sequences can lack the tags named with a protein.
How the values were obtained:
[1] = biological target: T1, human Kv4.3 tagged with Flag in the C-terminal (human) (UniProt Q9UK17); assay: co-IP; lysate of HEK293 cells expressing Kv4.3 (C-terminal Flag) and KChIP2; anti-Flag as immunoprecipitating antibody; blot for KChIP2; untreated or treated with MWCNTs
T1 sequence: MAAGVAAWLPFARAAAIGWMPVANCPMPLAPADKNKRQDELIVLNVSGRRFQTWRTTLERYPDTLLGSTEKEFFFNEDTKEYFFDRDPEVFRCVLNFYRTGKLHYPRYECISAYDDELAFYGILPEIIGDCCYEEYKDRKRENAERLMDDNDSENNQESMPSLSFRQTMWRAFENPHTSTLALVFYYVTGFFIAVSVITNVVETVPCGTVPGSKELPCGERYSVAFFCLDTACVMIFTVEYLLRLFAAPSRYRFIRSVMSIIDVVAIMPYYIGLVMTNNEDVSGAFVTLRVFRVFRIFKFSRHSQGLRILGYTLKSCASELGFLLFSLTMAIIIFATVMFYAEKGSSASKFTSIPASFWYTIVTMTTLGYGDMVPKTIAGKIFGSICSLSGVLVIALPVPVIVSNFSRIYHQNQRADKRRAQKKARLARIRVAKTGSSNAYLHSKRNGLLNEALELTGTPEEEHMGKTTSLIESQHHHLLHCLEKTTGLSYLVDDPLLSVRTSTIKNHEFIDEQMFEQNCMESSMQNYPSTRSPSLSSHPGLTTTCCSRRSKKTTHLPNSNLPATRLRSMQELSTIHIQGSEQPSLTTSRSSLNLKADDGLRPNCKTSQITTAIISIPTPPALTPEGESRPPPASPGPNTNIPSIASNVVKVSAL

Flag-Kv4.2-GFP (mouse) = biological target: T2, Flag-Kv4.2-GFP (mouse) (UniProt Q9Z0V2); assay: co-IP; lysate of HEK293 cells expressing Kv4.2 (Flag-Kv4.2-GFP) and KChIP2; mild lysis buffer (50 mM Tris-Cl pH 7.4, 150 mM NaCl, 1 mM EDTA, 1% NP-40, 0.5% sodium deoxycholate); anti-Kv4.2 antibody, protein A/G agarose, 4°C; blot for KChIP2; untreated, or MWCNTs 20 µg/ml for 6 h in the culture medium or in the lysate (KChIP2/Kv4.2 ratio then (66.0±13.6)% and (49.4±18.0)% of control)
T2 sequence: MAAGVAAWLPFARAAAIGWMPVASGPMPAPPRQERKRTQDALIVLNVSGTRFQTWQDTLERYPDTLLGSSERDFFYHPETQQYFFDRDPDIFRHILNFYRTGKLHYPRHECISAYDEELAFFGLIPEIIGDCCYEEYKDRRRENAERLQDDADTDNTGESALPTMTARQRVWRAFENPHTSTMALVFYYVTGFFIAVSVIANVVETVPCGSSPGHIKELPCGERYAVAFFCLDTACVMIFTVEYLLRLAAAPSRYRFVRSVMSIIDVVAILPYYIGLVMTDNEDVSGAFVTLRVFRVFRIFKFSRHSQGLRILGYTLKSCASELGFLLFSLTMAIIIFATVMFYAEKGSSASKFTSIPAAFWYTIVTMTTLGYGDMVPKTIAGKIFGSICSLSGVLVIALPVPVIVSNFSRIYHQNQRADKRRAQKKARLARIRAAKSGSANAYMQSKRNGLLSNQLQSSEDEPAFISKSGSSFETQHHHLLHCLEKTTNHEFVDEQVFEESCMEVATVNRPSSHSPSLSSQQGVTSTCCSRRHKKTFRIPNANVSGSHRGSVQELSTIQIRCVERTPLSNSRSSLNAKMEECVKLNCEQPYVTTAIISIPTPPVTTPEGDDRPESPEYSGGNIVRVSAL

binding [1]: binds | binding (Flag-Kv4.2-GFP (mouse)): binds
B1: potassium channel interacting protein 2 (KChIP2) (protein, UniProt Q9JJ69 1-270)
chain: MRGQGRKESLSDSRDLDGSYDQLTGHPPGPSKKALKQRFLKLLPCCGPQALPSVSETLAAPASLRPHRPRPLDPDSVEDEFELSTVCHRPEGLEQLQEQTKFTRRELQVLYRGFKNECPSGIVNEENFKQIYSQFFPQGDSSNYATFLFNAFDTNHDGSVSFEDFVAGLSVILRGTIDDRLNWAFNLYDLNKDGCITKEEMLDIMKSIYDMMGKYTYPALREEAPREHVESFFQKMDRNKDGVVTIEEFIESCQQDENIMRSMQLFDNVI
